Test results published in the supplement of paper PMC12595434, “Development of retinoid nuclear receptor pathway antagonists through targeting aldehyde dehydrogenase 1A3” (iScience, 2025).
The list shows a part of the results. Single values of this set are uncertain.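 Tm was set to 64 °C where no melting was found, and many curves are irregular.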

Amino acid sequences for entries named in this document (tags omitted). A change or cut given only in a name is not applied to a line headed by its entry.
UniProt Q99661: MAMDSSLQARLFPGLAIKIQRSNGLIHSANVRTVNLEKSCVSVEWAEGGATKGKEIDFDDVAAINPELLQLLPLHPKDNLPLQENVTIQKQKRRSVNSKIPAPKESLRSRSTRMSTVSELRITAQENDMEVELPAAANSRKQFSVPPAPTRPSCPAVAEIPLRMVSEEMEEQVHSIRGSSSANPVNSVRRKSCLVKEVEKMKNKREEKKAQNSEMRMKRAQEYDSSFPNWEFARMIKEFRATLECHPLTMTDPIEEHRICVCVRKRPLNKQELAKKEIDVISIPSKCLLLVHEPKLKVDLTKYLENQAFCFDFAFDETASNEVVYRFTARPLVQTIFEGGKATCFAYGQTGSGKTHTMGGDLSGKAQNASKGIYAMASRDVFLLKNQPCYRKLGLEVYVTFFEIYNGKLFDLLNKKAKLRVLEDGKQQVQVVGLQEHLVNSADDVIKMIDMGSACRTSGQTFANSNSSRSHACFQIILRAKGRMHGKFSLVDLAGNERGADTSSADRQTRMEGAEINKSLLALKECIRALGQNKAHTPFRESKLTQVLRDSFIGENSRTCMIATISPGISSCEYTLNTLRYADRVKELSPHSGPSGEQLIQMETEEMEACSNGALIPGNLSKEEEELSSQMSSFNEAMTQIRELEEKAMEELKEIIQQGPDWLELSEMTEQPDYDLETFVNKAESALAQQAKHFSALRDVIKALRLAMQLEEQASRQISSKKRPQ
UniProt Q9BTW9: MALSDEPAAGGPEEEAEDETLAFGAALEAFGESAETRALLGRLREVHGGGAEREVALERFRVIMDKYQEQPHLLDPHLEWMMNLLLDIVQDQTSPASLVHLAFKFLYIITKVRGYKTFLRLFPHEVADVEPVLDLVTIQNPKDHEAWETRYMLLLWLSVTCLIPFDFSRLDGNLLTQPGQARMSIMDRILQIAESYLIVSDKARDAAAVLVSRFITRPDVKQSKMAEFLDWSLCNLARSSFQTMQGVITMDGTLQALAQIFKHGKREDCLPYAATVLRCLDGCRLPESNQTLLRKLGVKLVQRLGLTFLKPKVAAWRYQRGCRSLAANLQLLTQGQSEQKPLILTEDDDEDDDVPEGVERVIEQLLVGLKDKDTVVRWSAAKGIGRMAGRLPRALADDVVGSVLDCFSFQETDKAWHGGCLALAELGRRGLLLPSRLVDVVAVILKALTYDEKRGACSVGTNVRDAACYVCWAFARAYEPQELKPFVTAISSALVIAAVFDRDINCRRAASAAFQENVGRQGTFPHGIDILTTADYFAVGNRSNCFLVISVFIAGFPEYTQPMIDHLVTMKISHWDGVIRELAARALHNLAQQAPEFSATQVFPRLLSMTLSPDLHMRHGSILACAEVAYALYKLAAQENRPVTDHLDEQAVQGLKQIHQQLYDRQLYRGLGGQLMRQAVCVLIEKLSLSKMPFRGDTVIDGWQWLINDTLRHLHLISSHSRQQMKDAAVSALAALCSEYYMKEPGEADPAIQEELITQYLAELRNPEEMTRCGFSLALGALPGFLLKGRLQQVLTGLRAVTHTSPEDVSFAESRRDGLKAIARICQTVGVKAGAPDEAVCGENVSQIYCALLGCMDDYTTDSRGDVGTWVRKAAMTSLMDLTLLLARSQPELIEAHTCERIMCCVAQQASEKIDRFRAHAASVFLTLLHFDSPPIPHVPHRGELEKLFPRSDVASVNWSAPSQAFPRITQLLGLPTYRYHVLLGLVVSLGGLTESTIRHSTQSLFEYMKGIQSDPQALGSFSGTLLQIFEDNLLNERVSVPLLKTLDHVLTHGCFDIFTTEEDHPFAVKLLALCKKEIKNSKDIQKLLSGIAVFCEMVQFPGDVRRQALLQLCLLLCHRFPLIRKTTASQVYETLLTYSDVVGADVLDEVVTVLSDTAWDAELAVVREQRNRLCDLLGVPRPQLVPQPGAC
UniProt Q9BVJ6: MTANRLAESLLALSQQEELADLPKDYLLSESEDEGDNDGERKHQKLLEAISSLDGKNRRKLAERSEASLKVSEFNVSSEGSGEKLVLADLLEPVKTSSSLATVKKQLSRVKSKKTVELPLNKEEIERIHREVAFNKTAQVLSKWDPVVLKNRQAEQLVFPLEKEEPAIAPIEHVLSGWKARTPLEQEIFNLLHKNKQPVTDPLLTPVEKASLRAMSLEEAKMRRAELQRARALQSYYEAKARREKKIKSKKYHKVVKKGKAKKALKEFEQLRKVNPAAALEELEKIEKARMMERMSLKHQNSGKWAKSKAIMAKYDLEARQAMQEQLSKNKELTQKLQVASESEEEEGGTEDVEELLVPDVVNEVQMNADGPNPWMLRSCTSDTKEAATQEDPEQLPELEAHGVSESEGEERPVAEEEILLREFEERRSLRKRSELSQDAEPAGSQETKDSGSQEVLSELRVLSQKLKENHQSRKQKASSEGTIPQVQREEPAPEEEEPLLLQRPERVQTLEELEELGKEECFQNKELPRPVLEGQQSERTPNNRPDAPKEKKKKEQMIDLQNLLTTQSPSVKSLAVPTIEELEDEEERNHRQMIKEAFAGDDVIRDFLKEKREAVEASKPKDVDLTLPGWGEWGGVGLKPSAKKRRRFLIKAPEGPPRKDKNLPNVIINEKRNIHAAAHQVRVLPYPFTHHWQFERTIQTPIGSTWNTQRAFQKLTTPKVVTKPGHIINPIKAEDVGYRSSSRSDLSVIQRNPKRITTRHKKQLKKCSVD
UniProt Q9BW66: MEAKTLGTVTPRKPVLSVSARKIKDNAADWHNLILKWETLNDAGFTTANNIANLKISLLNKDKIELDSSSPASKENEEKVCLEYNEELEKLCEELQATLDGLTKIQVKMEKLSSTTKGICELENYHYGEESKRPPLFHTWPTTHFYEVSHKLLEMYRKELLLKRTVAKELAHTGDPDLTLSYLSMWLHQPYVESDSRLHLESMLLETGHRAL
UniProt Q9BQC3: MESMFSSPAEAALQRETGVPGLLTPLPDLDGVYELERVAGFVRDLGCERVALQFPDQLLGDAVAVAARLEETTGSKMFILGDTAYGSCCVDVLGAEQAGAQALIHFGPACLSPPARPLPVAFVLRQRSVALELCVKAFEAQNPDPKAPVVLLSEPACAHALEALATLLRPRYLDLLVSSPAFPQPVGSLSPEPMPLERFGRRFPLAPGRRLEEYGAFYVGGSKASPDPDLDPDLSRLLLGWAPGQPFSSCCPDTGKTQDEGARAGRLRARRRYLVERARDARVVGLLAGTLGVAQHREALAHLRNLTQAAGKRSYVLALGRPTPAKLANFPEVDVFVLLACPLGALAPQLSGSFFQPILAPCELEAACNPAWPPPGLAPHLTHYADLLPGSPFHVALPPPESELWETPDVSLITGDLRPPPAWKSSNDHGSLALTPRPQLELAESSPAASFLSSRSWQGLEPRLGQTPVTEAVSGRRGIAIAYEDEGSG
UniProt Q99871: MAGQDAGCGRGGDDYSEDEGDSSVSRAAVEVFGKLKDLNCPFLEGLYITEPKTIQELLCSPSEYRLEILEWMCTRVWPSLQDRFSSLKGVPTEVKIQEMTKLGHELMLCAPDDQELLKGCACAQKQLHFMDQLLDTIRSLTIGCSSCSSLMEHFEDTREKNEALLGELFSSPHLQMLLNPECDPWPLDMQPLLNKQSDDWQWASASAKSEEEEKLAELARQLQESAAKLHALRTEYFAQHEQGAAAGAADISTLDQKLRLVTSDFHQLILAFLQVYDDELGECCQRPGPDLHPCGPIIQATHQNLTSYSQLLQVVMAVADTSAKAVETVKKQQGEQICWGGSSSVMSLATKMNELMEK
UniProt Q99717: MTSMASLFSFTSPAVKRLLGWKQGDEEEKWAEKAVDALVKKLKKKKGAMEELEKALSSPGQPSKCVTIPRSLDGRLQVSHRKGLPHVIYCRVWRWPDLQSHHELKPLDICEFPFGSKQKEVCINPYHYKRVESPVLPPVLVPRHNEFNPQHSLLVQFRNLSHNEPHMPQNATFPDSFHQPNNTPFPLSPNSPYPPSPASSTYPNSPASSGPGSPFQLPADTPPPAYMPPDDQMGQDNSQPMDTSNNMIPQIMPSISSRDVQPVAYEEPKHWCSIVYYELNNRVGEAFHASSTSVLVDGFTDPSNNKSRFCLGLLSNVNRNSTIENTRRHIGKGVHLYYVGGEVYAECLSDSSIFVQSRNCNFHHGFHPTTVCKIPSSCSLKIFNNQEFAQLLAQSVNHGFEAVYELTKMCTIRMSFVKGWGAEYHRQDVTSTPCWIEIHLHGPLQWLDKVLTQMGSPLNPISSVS
UniProt Q9BWQ6: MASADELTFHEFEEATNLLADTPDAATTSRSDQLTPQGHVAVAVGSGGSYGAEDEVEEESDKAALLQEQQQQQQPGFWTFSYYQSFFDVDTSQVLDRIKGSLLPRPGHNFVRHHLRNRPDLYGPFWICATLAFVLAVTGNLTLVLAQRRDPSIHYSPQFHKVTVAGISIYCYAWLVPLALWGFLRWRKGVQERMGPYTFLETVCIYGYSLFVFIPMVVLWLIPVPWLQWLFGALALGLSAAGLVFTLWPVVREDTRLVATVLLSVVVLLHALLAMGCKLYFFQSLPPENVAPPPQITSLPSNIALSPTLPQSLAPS
UniProt Q9BU02: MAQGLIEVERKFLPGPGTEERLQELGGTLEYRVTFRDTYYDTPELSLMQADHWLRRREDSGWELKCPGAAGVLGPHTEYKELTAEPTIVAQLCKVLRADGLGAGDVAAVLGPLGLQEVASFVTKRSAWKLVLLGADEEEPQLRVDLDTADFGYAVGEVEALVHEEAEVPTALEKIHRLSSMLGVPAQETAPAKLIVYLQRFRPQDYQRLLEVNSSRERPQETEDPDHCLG
UniProt Q9BUL8: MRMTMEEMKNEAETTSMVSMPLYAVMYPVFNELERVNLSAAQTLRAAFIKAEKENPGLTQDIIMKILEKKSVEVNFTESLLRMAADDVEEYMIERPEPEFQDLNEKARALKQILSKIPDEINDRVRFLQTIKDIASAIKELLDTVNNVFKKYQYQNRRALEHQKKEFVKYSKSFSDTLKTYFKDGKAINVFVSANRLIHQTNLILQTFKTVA
UniProt Q9BRK0: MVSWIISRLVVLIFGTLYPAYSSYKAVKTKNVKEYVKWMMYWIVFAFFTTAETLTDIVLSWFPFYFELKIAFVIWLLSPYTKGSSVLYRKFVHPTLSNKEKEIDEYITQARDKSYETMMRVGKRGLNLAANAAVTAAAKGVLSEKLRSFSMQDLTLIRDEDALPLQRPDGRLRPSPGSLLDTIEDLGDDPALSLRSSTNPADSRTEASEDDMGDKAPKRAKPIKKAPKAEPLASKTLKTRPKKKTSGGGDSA
UniProt Q99549: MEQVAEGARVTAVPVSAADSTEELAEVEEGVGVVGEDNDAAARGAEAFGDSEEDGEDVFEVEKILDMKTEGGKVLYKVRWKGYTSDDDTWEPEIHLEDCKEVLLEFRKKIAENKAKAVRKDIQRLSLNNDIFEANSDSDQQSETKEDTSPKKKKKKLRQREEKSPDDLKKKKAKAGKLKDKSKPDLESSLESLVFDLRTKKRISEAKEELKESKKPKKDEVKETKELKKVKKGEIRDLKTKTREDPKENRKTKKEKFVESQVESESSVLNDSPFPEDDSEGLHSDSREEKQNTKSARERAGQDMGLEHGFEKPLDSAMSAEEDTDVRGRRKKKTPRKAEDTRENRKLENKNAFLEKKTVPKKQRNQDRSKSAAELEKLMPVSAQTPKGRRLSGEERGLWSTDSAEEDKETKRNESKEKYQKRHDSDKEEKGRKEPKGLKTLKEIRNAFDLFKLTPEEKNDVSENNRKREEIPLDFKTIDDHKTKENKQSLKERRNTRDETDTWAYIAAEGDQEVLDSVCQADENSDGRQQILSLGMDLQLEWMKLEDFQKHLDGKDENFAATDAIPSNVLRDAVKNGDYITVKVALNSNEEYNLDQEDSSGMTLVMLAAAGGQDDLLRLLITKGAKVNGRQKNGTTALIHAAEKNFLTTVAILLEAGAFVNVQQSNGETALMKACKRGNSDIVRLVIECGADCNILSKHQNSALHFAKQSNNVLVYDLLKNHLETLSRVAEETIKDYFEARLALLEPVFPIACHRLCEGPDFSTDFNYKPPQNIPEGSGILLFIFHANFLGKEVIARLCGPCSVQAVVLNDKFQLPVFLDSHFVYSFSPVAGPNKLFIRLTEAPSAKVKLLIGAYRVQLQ
UniProt Q9BTU6: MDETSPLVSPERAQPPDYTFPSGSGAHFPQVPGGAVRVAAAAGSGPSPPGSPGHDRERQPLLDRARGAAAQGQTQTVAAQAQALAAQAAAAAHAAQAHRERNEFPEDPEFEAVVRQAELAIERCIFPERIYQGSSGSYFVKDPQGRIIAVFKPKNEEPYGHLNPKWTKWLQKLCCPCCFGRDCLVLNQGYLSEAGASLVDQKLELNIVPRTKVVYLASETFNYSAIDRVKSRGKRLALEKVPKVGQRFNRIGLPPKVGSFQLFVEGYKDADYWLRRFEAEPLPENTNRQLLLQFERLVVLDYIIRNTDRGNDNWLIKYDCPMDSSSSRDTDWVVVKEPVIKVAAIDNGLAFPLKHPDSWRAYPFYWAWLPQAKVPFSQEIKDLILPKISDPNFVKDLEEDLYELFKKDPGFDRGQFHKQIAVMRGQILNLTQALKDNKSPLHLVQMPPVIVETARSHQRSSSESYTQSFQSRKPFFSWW

Compound: CCc1cnccc1C(=O)Nc1cc2c(cc1F)NC(=O)CC2
Assay: melting temperature shift (DMSO Tm minus MBE1-treated Tm) in cellular thermal proteome profiling; higher = less thermal stabilization by MBE1 (negative = stabilized by MBE1)
Conditions: A375

Row | Target | melting temperature shift (MBE1 concentration: 100 nM) [°C] | melting temperature shift (MBE1 concentration: 1 uM) [°C]
1 | KIF2C (UniProt Q99661) | -1.21 | -0.259
2 | TXN2 (UniProt Q99757) | -0.268 | 1.26
3 | CPPED1 (UniProt Q9BRF8) | -2.18 | -2
4 | TBCD (UniProt Q9BTW9) | 0.568 | 0.299
5 | UTP14A (UniProt Q9BVJ6) | -0.0183 | 0.946
6 | CINP (UniProt Q9BW66) | -1.86 | 1.46
7 | LLPH (UniProt Q9BRT6) | -1.86 | -2.08
8 | NDC1 (UniProt Q9BTX1) | -0.195 | 0.434
9 | DPH2 (UniProt Q9BQC3) | -0.798 | 0.574
10 | NUDT9 (UniProt Q9BW91) | -0.244 | -0.281
11 | BAG1 (UniProt Q99933) | -1.52 | -2.95
12 | HAUS7 (UniProt Q99871) | -0.812 | -0.423
13 | QTRT1 (UniProt Q9BXR0) | -0.977 | -0.299
14 | UniProt Q9BRS8 | -0.922 | 0.965
15 | CECR5 (UniProt Q9BXW7) | 0.175 | -0.47
16 | MPHOSPH6 (UniProt Q99547) | 0.929 | -0.11
17 | BDH2 (UniProt Q9BUT1) | -0.91 | -0.415
18 | ARPC5L (UniProt Q9BPX5) | -1.8 | 0.201
19 | UniProt Q99717 | -0.606 | -0.459
20 | EIF2A (UniProt Q9BY44) | -0.514 | -0.122
21 | UniProt Q9BWQ6 | -0.0886 | 2.68

Some of the entries so far, in markdown:

| Row | Target | melting temperature shift (MBE1 concentration: 100 nM) [°C] | melting temperature shift (MBE1 concentration: 1 uM) [°C] |
| --- | --- | --- | --- |
| 11 | BAG1 (UniProt Q99933) | -1.52 | -2.95 |
| 12 | HAUS7 (UniProt Q99871) | -0.812 | -0.423 |

The list goes on:

Row | Target | melting temperature shift (MBE1 concentration: 100 nM) [°C] | melting temperature shift (MBE1 concentration: 1 uM) [°C]
22 | THTPA (UniProt Q9BU02) | -0.244 | 0.604
23 | UniProt Q99674 | 0.898 | -0.83
24 | PDCD10 (UniProt Q9BUL8) | -1.47 | 0.0122
25 | PIK3R4 (UniProt Q99570) | 0.574 | 0.488
26 | UniProt Q9BX79 | -2.26 | -3.48
27 | RAB11FIP5 (UniProt Q9BXF6) | -0.464 | -0.684
28 | ELAC2 (UniProt Q9BQ52) | -2.43 | 1.2
29 | UniProt Q9BY89 | -0.687 | 0.362
30 | UniProt Q9BRK0 | -1.38 | -2.31
31 | UniProt Q99549 | -2.58 | -3.93
32 | PLIN2 (UniProt Q99541) | -0.538 | -0.232
33 | MYBBP1A (UniProt Q9BQG0) | -0.513 | -0.0513
34 | TUBA1C (UniProt Q9BQE3) | 0.751 | 0.905
35 | UniProt Q9BVR0 | -0.179 | 0.503
36 | PI4K2A (UniProt Q9BTU6) | -0.49 | -0.288
37 | UniProt Q9BX63 | 2.34 | 1.49
38 | CPNE1 (UniProt Q99829) | -0.596 | -0.256
39 | OSBPL1A (UniProt Q9BXW6) | 0.647 | -0.537
40 | RBM4 (UniProt Q9BWF3) | -0.16 | -1.47
41 | SFXN3 (UniProt Q9BWM7) | -0.335 | -0.496
42 | UniProt Q9BY12 | 2.36 | 1.71
